PubChem BioAssay AID1259308 – NCATS, 2017
Purpose: 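Knock-downs that increase output of a recombinant reporter protein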 (primary screen). System: human HEK293 embryonic kidney cells stably expressing firefly luciferase (HEK-CMV-Luc2-Hygro). Knock-down reagent: single siRNA against human genes, 0.8 pmol siRNA per well. Time to read-out: 72 h. Detection: 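Luciferase light (ONE-Glo) measured on one replicate plate set and viability (CellTiter-Glo) on the other, scaled to a negative control siRNA, with robust z-scores and luciferase per cell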. Scale: total luciferase, z-score and total luciferase, % of control: higher = more reporter protein produced. Hit rule: 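An siRNA counts as active if its total luciferase robust z-score exceeds 3; genes with two or more such siRNAs out of three were retested with fresh siRNAs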. Calls: active = raised luciferase; inactive = no rise.
Shown is one part, drawn at random, of about 59,000 reagents. In the full data, about 1,510 (2.6%) got an active call. 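Calls use total luciferase alone and ignore viability, so some active siRNAs may act by altering cell number.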 The numbers tell different reagents against one gene apart. Not all columns of the deposit are shown.

After knock-down of MACROD1 (mono-ADP ribosylhydrolase 1) #1, the screen gave total luciferase, z-score 1.31; total luciferase, % of control 108; inactive.
MACROD1 (mono-ADP ribosylhydrolase 1) #2 gave total luciferase, z-score 1.31; total luciferase, % of control 108; inactive.
Silencing of MACROD1 (mono-ADP ribosylhydrolase 1) #3 came out at: total luciferase, z-score 3.47; total luciferase, % of control 151; active.
After knock-down of TRO (trophinin) #1, the screen gave total luciferase, z-score 2.38; total luciferase, % of control 129; inactive.
With knock-down of TRO (trophinin) #2, the screen gave total luciferase, z-score 0.0703; total luciferase, % of control 83.3; inactive.
Against TRO (trophinin) #3, the entry reads total luciferase, z-score -0.48; total luciferase, % of control 72.3; inactive.
After knock-down of IGFL4 (IGF like family member 4) #1 the results were total luciferase, z-score 0.0918; total luciferase, % of control 83.7; inactive.
Against IGFL4 (IGF like family member 4) #2, the values are total luciferase, z-score 2.36; total luciferase, % of control 129; inactive.
IGFL4 (IGF like family member 4) #3 showed total luciferase, z-score 1.88; total luciferase, % of control 119; inactive.
For IGFL4 (IGF like family member 4) #4 the deposit lists total luciferase, z-score -0.522; total luciferase, % of control 71.5; inactive.
For IGFL4 (IGF like family member 4) #5, the values are total luciferase, z-score 1.37; total luciferase, % of control 109; inactive.
Knock-down of IGFL4 (IGF like family member 4) #6 resulted in: total luciferase, z-score -0.642; total luciferase, % of control 69.1; inactive.
After knock-down of RAF1 (Raf-1 proto-oncogene, serine/threonine kinase) #1 the results were total luciferase, z-score -0.2; total luciferase, % of control 77.9; inactive.
For RAF1 (Raf-1 proto-oncogene, serine/threonine kinase) #2, the values are total luciferase, z-score -0.766; total luciferase, % of control 66.7; inactive.
RAF1 (Raf-1 proto-oncogene, serine/threonine kinase) #3 gave total luciferase, z-score -0.418; total luciferase, % of control 73.6; inactive.
PSMB2 (proteasome 20S subunit beta 2) #1 showed total luciferase, z-score 0.855; total luciferase, % of control 98.9; inactive.
PSMB2 (proteasome 20S subunit beta 2) #2 gave total luciferase, z-score 0.521; total luciferase, % of control 92.3; inactive.
Against PSMB2 (proteasome 20S subunit beta 2) #3 the deposit lists total luciferase, z-score 0.795; total luciferase, % of control 97.7; inactive.
Against TIMM17A (translocase of inner mitochondrial membrane 17A) #1 the deposit lists total luciferase, z-score -0.311; total luciferase, % of control 75.7; inactive.
Silencing of TIMM17A (translocase of inner mitochondrial membrane 17A) #2 gave: total luciferase, z-score -1.25; total luciferase, % of control 57.1; inactive.
After knock-down of TIMM17A (translocase of inner mitochondrial membrane 17A) #3, the record shows total luciferase, z-score 0.181; total luciferase, % of control 85.5; inactive.

Records listed so far whose target name starts with I or i:
IGFL4 (IGF like family member 4) #1 → total luciferase, z-score = 0.0918; total luciferase, % of control = 83.7; Call = inactive
IGFL4 (IGF like family member 4) #2 → total luciferase, z-score = 2.36; total luciferase, % of control = 129; Call = inactive
IGFL4 (IGF like family member 4) #3 → total luciferase, z-score = 1.88; total luciferase, % of control = 119; Call = inactive
IGFL4 (IGF like family member 4) #4 → total luciferase, z-score = -0.522; total luciferase, % of control = 71.5; Call = inactive
IGFL4 (IGF like family member 4) #5 → total luciferase, z-score = 1.37; total luciferase, % of control = 109; Call = inactive
IGFL4 (IGF like family member 4) #6 → total luciferase, z-score = -0.642; total luciferase, % of control = 69.1; Call = inactive
